Construct, isoform or probe ends are uncertain for at least one entry. Where cells or extracts were used, other partners may take part. For some assays here: A weaker result is weaker than the reference pair of the same experiment.
What was measured:
[1] = tested on: Tcf4 (Tcf7l2), [Apc]ko-TOTAL liver nuclear extract + beta-catenin, [Apc]ko-TOTAL liver nuclear extract; experiment: competition with a labelled probe; conditions: EMSA with liver nuclear extracts and 32P probes as in Bobard et al., 2005, pH and temperature not given, protein in an extract
[2] = tested on: Tcf4 (Tcf7l2), [Apc]ko-TOTAL liver nuclear extract + beta-catenin, [Apc]ko-TOTAL liver nuclear extract; experiment: EMSA; conditions: EMSA with liver nuclear extracts and 32P probes as in Bobard et al., 2005, pH and temperature not given, protein in an extract, label: 32P
[3] = biological target: Tcf4 (Tcf7l2), WT liver nuclear extract (Mus musculus) (UniProt Q924A0); experiment: EMSA; conditions: WT liver nuclear extract; EMSA with liver nuclear extracts and 32P probes as in Bobard et al., 2005; pH and temperature not given; protein in an extract; label: 32P

Chains of the proteins cited; added tags and fusions are not shown. A line that says so, or that is headed by a name, gives the form on record, which may keep a tag or linker.
UniProt Q924A0, whole entry: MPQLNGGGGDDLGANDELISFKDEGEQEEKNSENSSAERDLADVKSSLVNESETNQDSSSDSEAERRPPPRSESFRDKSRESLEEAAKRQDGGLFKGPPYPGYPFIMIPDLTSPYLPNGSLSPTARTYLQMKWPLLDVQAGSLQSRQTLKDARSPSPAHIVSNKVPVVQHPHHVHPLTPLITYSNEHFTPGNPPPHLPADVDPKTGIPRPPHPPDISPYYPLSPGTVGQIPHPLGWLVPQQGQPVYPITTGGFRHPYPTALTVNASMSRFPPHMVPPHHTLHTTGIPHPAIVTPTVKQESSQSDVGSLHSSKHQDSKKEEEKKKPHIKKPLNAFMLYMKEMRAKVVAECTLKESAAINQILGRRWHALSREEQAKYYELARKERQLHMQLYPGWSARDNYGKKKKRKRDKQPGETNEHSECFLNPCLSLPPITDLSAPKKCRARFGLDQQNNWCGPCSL
Tcf4 (Tcf7l2), [Apc]ko-TOTAL liver nuclear extract + beta-catenin, [Apc]ko-TOTAL liver nuclear extract, one chain, as listed by the source, chain 1 of 2: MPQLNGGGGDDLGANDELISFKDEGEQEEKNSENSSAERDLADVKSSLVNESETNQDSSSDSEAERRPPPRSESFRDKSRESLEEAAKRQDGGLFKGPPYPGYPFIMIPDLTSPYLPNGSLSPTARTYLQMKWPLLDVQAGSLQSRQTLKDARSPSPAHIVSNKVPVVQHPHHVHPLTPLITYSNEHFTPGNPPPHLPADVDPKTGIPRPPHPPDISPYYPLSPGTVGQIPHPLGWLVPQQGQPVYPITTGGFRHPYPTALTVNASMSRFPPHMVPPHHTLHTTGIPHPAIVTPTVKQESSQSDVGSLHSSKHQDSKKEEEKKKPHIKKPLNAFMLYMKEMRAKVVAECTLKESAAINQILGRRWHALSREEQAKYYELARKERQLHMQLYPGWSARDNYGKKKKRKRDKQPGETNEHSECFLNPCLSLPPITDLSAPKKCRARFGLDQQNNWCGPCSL
Tcf4 (Tcf7l2), [Apc]ko-TOTAL liver nuclear extract + beta-catenin, [Apc]ko-TOTAL liver nuclear extract, one chain, as listed by the source, chain 2 of 2: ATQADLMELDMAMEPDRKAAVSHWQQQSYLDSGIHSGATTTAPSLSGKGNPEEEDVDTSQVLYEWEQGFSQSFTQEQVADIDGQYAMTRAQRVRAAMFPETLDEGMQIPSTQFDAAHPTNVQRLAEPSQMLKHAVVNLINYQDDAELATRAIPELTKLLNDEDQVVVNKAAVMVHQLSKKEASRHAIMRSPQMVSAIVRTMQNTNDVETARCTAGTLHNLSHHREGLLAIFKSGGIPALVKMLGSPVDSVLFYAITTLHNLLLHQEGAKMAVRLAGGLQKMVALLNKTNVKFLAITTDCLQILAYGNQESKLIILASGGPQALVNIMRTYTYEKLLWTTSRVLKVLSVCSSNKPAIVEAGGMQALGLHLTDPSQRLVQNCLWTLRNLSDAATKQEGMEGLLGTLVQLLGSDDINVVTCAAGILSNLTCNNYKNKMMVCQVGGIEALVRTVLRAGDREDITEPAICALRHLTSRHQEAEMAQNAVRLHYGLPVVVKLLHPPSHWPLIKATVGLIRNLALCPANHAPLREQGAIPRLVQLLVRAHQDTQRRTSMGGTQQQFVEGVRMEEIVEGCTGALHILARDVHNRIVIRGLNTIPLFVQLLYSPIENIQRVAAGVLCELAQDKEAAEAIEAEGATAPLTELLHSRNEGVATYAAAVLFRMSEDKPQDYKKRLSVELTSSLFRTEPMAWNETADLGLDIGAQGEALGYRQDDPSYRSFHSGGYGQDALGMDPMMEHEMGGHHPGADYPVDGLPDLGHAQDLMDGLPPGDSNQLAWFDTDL

“CATCCCCCTTTGATCTTACC (double strand) [WRE cold competitor]”: binds ([1]; cold WRE against 32P-DR2).

“CATCCCCCTTTGATCTTACC (double strand) [Wnt-responsive element (WRE)]”: binds [2].

“GCCCGGCTGACCTCTTGACCCCTCTGGGCTTGAG (double strand) [DR2 cold competitor (HNF4)]”: binds ([1]; cold DR2 (HNF4) against 32P-WRE).

“GCCCGGCTGACCTCTTGACCCCTCTGGGCTTGAG (double strand) [Epo-3'E HRE (DR2), HNF4-responsive element]”: binds more weakly [3]; binds ([2]; [Apc]ko-TOTAL liver nuclear extract, stronger binding, supershift from beta-catenin).

Reference: publication PMC7641585
